# Test results taken from the supplement of paper PMC3334620.
# Over roughly 33,000 sequences, “E-score (-0.5 to 0.5)” has its median near -0.016; the highest 2% begin near 0.3. The list shows a part of the results.
# Biological target: T1, Yer184c (UniProt P39961)
# T1 sequence: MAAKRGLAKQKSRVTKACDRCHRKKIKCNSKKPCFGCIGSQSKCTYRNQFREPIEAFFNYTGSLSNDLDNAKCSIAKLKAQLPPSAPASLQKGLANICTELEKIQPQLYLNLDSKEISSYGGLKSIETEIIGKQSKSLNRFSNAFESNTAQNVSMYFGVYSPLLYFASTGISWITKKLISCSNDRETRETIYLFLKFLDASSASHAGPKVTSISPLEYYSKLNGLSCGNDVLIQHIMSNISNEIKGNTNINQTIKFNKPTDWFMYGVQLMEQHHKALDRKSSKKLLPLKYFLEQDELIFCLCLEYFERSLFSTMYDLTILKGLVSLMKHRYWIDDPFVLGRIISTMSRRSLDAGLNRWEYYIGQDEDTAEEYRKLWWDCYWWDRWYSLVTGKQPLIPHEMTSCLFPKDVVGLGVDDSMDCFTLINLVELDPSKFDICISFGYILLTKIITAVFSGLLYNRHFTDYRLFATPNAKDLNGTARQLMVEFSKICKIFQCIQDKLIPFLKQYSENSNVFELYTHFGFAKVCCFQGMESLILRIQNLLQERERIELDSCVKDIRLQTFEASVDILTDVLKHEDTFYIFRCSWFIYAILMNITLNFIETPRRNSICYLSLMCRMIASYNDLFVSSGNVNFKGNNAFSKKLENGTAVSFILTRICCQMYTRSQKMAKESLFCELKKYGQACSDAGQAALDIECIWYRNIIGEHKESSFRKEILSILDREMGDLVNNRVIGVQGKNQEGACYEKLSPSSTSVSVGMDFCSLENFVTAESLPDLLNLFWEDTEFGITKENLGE
# Test: PBM E-score (8-mer binding enrichment) (E-score (-0.5 to 0.5)); higher = stronger / more preferred TF binding
# Conditions: protein concentration: 100 nM; construct: GST-full length
# Summary of the method: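 PURExpress in vitro transcription/translation supplied GST-tagged yeast transcription factors, either full-length or DNA-binding domain. Applied at about 100-200 nM to universal all-10-mer Agilent arrays double-stranded by primer extension, the bound protein was detected with fluorescent anti-GST. E-scores, modified Wilcoxon-Mann-Whitney statistics, were given by the Universal PBM Analysis Suite to ungapped eight-base words pooled with their reverse complements after masliner normalisation.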
row,Sequence,PBM E-score
1,ATTTGCGG,0.183
2,TAGCGAGA,0.00559
3,AGCCTAGC,-0.143
4,AACCCTCT,-0.401
5,CCGCGTCA,-0.202
6,AGACCCGA,0.174
7,GAGGTCCC,-0.0428
8,AATTATCG,0.305
9,TGCGCACA,0.0153
10,TACTAGTA,0.338
11,ATATTACC,0.0847
12,GAGTTCGA,0.139
13,AATCGGGG,-0.168
14,AATATAGC,0.019
15,AGAAGAAA,0.194
16,GCTAGCAA,-0.00942
17,CGCGGGGC,0.127
18,ACTAGAGC,-0.186
19,CAGCCGCC,0.0636
20,GCTCTCGA,-0.0884
21,ACATAGGA,-0.241
22,AGTACGAG,0.00236
23,AACGGCGT,0.0782
24,CGACTTAG,0.00134
25,GCTAACTA,0.156

# As entered above.
# For PBM E-score, ACTAGAGC shows -0.186
# For PBM E-score, CAGCCGCC shows 0.0636
# For PBM E-score, CGCGGGGC shows 0.127
# For PBM E-score, GCTAACTA shows 0.156
# For PBM E-score, GCTCTCGA shows -0.0884
# For PBM E-score, AGTACGAG shows 0.00236

# Further records.

row,Sequence,PBM E-score
1,GCCCCTTA,-0.318
2,GCCCTAAA,-0.195
3,ACTCTTCG,-0.0215
4,ACCAAACG,-0.0596
5,ACTCCAGT,-0.245
6,GAGTTTAC,0.164
7,CTACTGTC,-0.171
8,ACTAACAT,0.196
9,CGCGACTC,-0.0899
10,TATAGAGA,0.0298
11,CGTGACAC,0.0278
12,AGCAGATG,-0.28
13,CCATTTCA,-0.27
14,AATCGAAA,0.0631
15,GCAACGAC,-0.056
16,CTCATGTA,0.11
17,AAAGCGGG,-0.254
18,CAAGAGTA,-0.033
19,CCGACTCA,-0.0343
20,CGATCGGA,0.142
21,GAGACCAC,-0.0935
22,AGTTTGTA,0.0354
23,CGTATTCA,0.05
24,ATATCGAC,0.0442
25,CGATTACG,-0.115

row,Sequence,PBM E-score
1,ATACCAGC,-0.133
2,AGGTTGAT,-0.299
3,ATTTGAAG,0.00359
4,GACCTACC,-0.139
5,AGTCCCAG,-0.169
6,AAAAAATT,0.136
7,CCGTTAAC,0.161
8,GGGCCGCA,0.0547
9,AGTTGGAC,-0.073
10,CTCCTTGA,-0.312
11,CATGTTGG,-0.193
12,GGCAATCA,0.0964
13,ACCAAGCT,-0.0189
14,CACCAGGG,-0.309
15,ACGAGTAT,-0.195
16,AAATGAAG,0.0447
17,AACGCGCA,-0.0307
18,ACTGCTGA,-0.2
19,ACAAACCA,-0.0386
20,ATACCCTG,-0.0448
21,GCCATCTA,-0.122
22,CCTGTAGA,-0.094
23,AGAATAAG,0.0963
24,AGATCAAA,0.0845
25,CTAAGCCA,-0.242

row,Sequence,PBM E-score
1,CTGAGTAA,-0.144
2,ACTCCACG,-0.142
3,ATAATAAC,0.121
4,AACCTAAC,0.0518
5,AAGGTGGG,-0.336
6,TGCCCAAA,-0.0685
7,CCAGATAA,0.0399
8,GGCATTTA,-0.0741
9,ATGTGTAC,0.0767
10,ATGAGCTG,-0.105
11,AGCACTAC,-0.208
12,ACCCTGCG,-0.107
13,AAGTGCCT,-0.332
14,ATTAGCTA,-0.0375
15,CAACCGGC,0.323
16,ATTCGCCC,-0.127
17,CAAGCAGA,0.0342
18,ATAGCGCC,0.0587
19,GCGGAGGA,-0.132
20,AAACGGAA,0.403
21,ACGCGTGG,0.0299
22,CAACTAAC,0.236
23,CCAGACGC,-0.283
24,CCTATGGA,-0.186
25,CCTGGTGC,-0.0316

row,Sequence,PBM E-score
1,AGGTCAGA,-0.155
2,ATGCTCGG,0.11
3,TTAGTCAA,-0.0771
4,CTCCCGGC,0.28
5,AAACGTCT,0.0794
6,CGTTGTCA,-0.00172
7,AAGTGGAT,-0.119
8,CCGTGACA,-0.0256
9,AGGCTTTG,-0.172
10,CGGGTGGC,-0.0483
11,GATCTGTA,-0.0435
12,AGGTCATG,-0.148
13,GTATCTGA,-0.144
14,AGTCAGCA,-0.0623
15,ACAGGGGA,-0.249
16,TACGTGGA,-0.2
17,CCTTGTCC,-0.0002
18,CGTTGAAG,0.0128
19,CTCTGCTC,-0.0669
20,AGCTTAAT,0.201
21,CCTCTAGA,-0.0844
22,ATACTTGC,-0.0392
23,GCGAGTAC,0.0596
24,CCGAGGCC,0.0408
25,CAACTGTC,-0.084

row,Sequence,PBM E-score
1,ATACTTCC,0.0334
2,GACTGGGC,-0.196
3,GAATACTC,-0.0235
4,ATACGAGA,-0.148
5,ACGTGGGG,-0.255
6,CGATCTGC,0.0352
7,GCGAGGTA,-0.0496
8,GTCGATGA,0.0373
9,ACTCGGGG,-0.0276
10,GGACTGTA,-0.0506
11,ACATCGCT,-0.119
12,CGGCAAAC,0.299
13,AGGTTCCA,-0.0593
14,CCTCCAGA,-0.0632
15,AATGCGGT,0.0128
16,AGGCAGAT,-0.0853
17,CGTTTTAG,-0.0367
18,GGACCACA,0.0635
19,GCTCAGGA,0.00189
20,AAAGTGTT,0.133
21,ACGAAGTA,-0.0417
22,TAGAACGA,0.11
23,ACTCACCC,0.0156
24,ACTCCGCC,0.00671
25,AATATGTA,0.25

row,Sequence,PBM E-score
1,AGGTTCGC,-0.153
2,ACGACAGG,-0.0972
3,CAAGTGAA,0.025
4,TGAACGAA,-0.118
5,ATACACCC,0.0108
6,GGAGTCCA,-0.032
7,TAATTAAA,0.12
8,CATCCCTC,-0.21
9,ATCATTGG,-0.149
10,TAAATGCA,0.072
11,AGCGTTGC,-0.00053
12,AAGAGAAG,0.0649
13,AGTCAGAG,-0.0672
14,TAATCGCA,0.0619
15,CAACGGCG,0.0934
16,AGTGTTGC,0.0906
17,CCTTTTTA,-0.0252
18,CGAGGTTA,-0.00293
19,TGAGGCCA,0.0298
20,ACTGTGCA,-0.153
21,AGCCTACG,0.133
22,CATTGGAC,-0.0168
